# Experimental data taken from the supplement of paper PMC3334620.
# Over roughly 33,000 sequences, “E-score (-0.5 to 0.5)” has its median near -0.0014; the highest 2% begin near 0.25. This is one part of the list.
# Target: T1, Cad1 (UniProt P24813)
# T1 sequence: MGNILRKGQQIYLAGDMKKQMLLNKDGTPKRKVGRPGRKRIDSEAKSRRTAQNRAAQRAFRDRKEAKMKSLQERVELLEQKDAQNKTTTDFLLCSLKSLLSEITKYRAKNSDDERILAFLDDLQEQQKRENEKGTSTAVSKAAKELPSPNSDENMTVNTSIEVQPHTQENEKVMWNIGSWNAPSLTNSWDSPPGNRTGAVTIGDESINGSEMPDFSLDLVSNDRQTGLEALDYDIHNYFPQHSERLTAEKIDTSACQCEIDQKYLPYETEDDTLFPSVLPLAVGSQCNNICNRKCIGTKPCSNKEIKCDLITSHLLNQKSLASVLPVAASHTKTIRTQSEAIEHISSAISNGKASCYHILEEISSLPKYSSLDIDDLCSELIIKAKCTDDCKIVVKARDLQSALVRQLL
# Assay: PBM E-score (8-mer binding enrichment) (E-score (-0.5 to 0.5)); higher = stronger / more preferred TF binding
# Conditions: protein concentration: 100 nM; construct: GST-full length
# Method: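 Universal 'all 10-mer' protein binding microarrays (Agilent AMADID 015681) probed with GST-tagged S. cerevisiae TFs (full-length or DBD) made by in vitro transcription/translation (PURExpress), about 100-200 nM. Bound TF was detected with fluorescent anti-GST. Each ungapped 8-mer (which stands for itself and its reverse complement) is scored by the PBM enrichment score (E-score), a modified Wilcoxon-Mann-Whitney statistic from -0.5 to +0.5, computed with the Universal PBM Analysis Suite. Scale: above 0.35 generally sequence-specific binding.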
row,Sequence,PBM E-score
1,TAGTTTGA,0.167
2,CTCGTACA,-0.0337
3,CACTCGCG,0.122
4,GCTGGGCC,-0.297
5,CGGGAATC,-0.0186
6,TATTCACA,0.241
7,AGACGAGG,-0.199
8,CCTCCTTA,-0.237
9,AGTAATTA,0.283
10,ACCTATGG,0.041
11,CTATCCCA,-0.137
12,GAGAAACC,-0.0404
13,AACCGGTG,-0.0493
14,ACGTGTGA,-0.0977
15,ACTGTTCG,0.0815
16,ATAACGCC,-0.0129
17,ATCGCGTA,0.0548
18,AACTCTTC,-0.0474
19,TAAACGTA,0.172
20,AGACGCCG,0.105
21,TAGGGATA,-0.0305
22,GAAGCCGA,-0.0276
23,TAGCGCCA,0.0297
24,ACTTCAGA,0.0469
25,CAACTGAG,0.0347

row,Sequence,PBM E-score
1,GACAACCA,0.218
2,CGGTCAAC,0.114
3,CCCTCCGC,-0.168
4,AATACACA,0.144
5,CGGCCCAC,-0.223
6,GGCATCGA,-0.176
7,GGAATAAC,0.203
8,ATGTGGAA,0.12
9,CCTCTTAG,0.191
10,CTGGTTAA,-0.0885
11,TACATGGA,-0.135
12,AAATGTTG,-0.205
13,AGAATGCT,0.0001
14,GAAAAGTC,0.0311
15,AAGAGAGG,-0.173
16,ATTATTGA,-0.00523
17,ATGAAACG,0.0529
18,GAGCCTAC,-0.185
19,CCCCGTAA,-0.128
20,CCAGCCAC,-0.0707
21,ACTTTAGG,-0.214
22,AAATCGAT,0.246
23,GTCGGGCA,-0.0909
24,ACCTAGAG,-0.181
25,AGTAGTTC,0.0997

# Shown with bars between the fields: entries from further up
row | Sequence | PBM E-score
8 | ATGTGGAA | 0.12
9 | CCTCTTAG | 0.191
10 | CTGGTTAA | -0.0885
11 | TACATGGA | -0.135

# Rewritten with bars between the fields: part of the list above.
row | Sequence | PBM E-score
4 | GCTGGGCC | -0.297
7 | AGACGAGG | -0.199
11 | TACATGGA | -0.135

# (next part)

row,Sequence,PBM E-score
1,CACAGGAC,-0.0449
2,CAAGCGCC,-0.119
3,AGGGTTGC,-0.0156
4,ACCGGAAC,0.147
5,ACCCGTTG,-0.222
6,AGACGTTG,-0.0385
7,GACTCCGC,-0.135
8,CCTCTCAG,-0.235
9,GGCGCTAA,-0.0255
10,CTTTGCAA,0.0374
11,CATCCAAA,-0.0398
12,TAGGACCA,-0.154
13,CGTGCGAC,-0.17
14,CTCAATGA,-0.0762
15,CCCCGTAG,-0.199
16,GGTTCTCA,0.0117
17,CACTTCGG,-0.0116
18,AGTGGCAG,-0.0234
19,ATTATATG,0.211
20,CCTCACGA,-0.294
21,TGCGAAAA,0.266
22,TAACATTA,0.14
23,AGCAAAGC,-0.0684
24,ACCTACCC,-0.0797
25,ATCTCACA,-0.0434

row,Sequence,PBM E-score
1,CCAATATC,0.158
2,ATAATTCC,-0.00553
3,GTCCGGGA,0.135
4,TCGTGCAA,0.232
5,CGCATGAC,0.0849
6,CCTCTCTC,-0.208
7,AGTGTCTG,0.15
8,ACTGATGC,-0.0988
9,CATAATCA,0.175
10,CCGGCTTC,-0.015
11,GAGGGTGC,-0.226
12,AAGTTGAT,0.0664
13,AAGCTTCG,-0.0845
14,ACTTATTC,0.0846
15,ACCCGGTC,-0.162
16,GACTTAAC,-0.135
17,ACTCAAAT,0.108
18,ACAACAAC,0.138
19,ACGCTGTG,0.159
20,ATATGATA,0.285
21,AAATTCCA,0.308
22,GCACGGCA,0.144
23,TCAGAGCA,-0.14
24,GGGAGGTA,-0.14
25,ATAATATA,0.227

row,Sequence,PBM E-score
1,ATCACGTG,0.159
2,CGCTCCAG,-0.174
3,GAGTGCGC,-0.0123
4,AATTAATA,0.432
5,CAACTTAC,-0.0836
6,AGACACCC,-0.151
7,AATCAAGC,-0.0596
8,AGCCGCTA,-0.0301
9,CATCAGGA,0.139
10,AGGTGTCG,-0.00801
11,CTGGCCCA,-0.201
12,ACAGCCGA,-0.225
13,AACGGAAT,0.269
14,AGCCTTTG,-0.253
15,CGAGCACA,0.109
16,CGCGCTAA,0.256
17,GAATGTAA,0.152
18,AAACATTC,-0.177
19,GGCGGATA,0.0172
20,AGATTAGG,-0.0256
21,CGTGCGTA,-0.05
22,GCCAACCA,-0.116
23,AGCCGGAA,0.21
24,ATTCCAAC,0.0684
25,GCCCGGCC,-0.259

# Reformatted: entries from further up.
row | Sequence | PBM E-score
14 | CTCAATGA | -0.0762
15 | CCCCGTAG | -0.199

# Later entries:

row,Sequence,PBM E-score
1,ACGTAGCA,-0.00472
2,AAGGTTAA,-0.00282
3,CGACGACC,-0.0879
4,CGCCTTCC,-0.236
5,AGGGGGCC,-0.393
6,CCACATTC,-0.065
7,GCAGATCC,-0.00886
8,TGACCTAA,0.115
9,AGGTGACT,0.00699
10,CTTTCCGC,0.107
11,CATTAGCA,0.0321
12,ATGGGCGG,-0.0566
13,AATAATTA,0.336
14,AAGTATGG,0.00171
15,ATTAGTAC,0.071
16,ATCCTGTG,-0.127
17,GATAGACA,-0.0074
18,CCAGTCGG,-0.238
19,AGCGTTTC,-0.185
20,CCCAATAG,-0.0892
21,GGTAGGTA,-0.0804
22,GCGTCCGA,0.082
23,CTAAGATC,0.0614
24,AGGAGTGC,-0.0841
25,GAAACCTC,0.00876

row,Sequence,PBM E-score
1,AGATGAGG,-0.163
2,CCCTCAAC,-0.181
3,CGATATCG,0.241
4,CAGGTAAC,-0.0537
5,CGTATCTA,0.00454
6,ACAGAAAC,0.116
7,AATGCCCT,-0.245
8,ATCTGACA,-0.0553
9,AGCTCTCG,-0.227
10,CCATGTAG,-0.0546
11,CTAGAAAC,-0.0974
12,GGTGCCGA,0.0678
13,TGATCGCA,-0.112
14,ACGGTCGG,-0.0507
15,AAGAAAGA,-0.0162
16,CGGTAATA,0.121
17,AGGAGGCC,-0.27
18,CTCGGGTC,-0.033
19,GAATATAA,0.0963
20,ATAGCTTC,-0.0987
21,GATACTAC,0.2
22,CCCAAAGC,-0.13
23,AAGCCATT,0.0852
24,AACTATTG,0.134
25,TTACGAAA,0.232

row,Sequence,PBM E-score
1,AGTAACCC,0.0776
2,AGTAGGCA,0.103
3,ACGACTCG,-0.0779
4,TCACGACA,0.0406
5,CCTCTCCG,-0.213
6,AGTGACAA,-0.0134
7,CAAGACTC,-0.0201
8,CCGGTCAA,0.132
9,CGGCACCC,-0.216
10,CATCGCGA,0.25
11,CGACGTGA,0.0584
12,ATCTCAAG,0.00391
13,AGGCTTGA,-0.0249
14,GGAGGAAC,-0.13
15,CGGTCAAA,0.176
16,ATAAGGCG,0.0694
17,AGCTCAAA,0.0829
18,ACTTGAAT,0.107
19,ACCAGCCG,0.0467
20,CGTAGTCA,-0.127
21,TACAGAAA,0.217
22,CGACCTCC,-0.077
23,CAGGTGGC,-0.183
24,ATAGTTGC,0.0667
25,CCTCAGTA,-0.198

row,Sequence,PBM E-score
1,AATCATTA,0.0402
2,CCAGTTCA,0.0422
3,GAGGATAC,-0.156
4,GATCGGGA,-0.142
5,CTAAATAG,0.09
6,AGTCAATG,-0.101
7,CGTAGTAC,-0.00804
8,AGGGGAAG,-0.282
9,CCTGTGTC,-0.273
10,CTGCATCA,0.0963
11,CCGCTCAA,-0.0655
12,GCCTCCGA,-0.0456
13,ATCAGCGC,0.176
14,AGACACTG,0.0602
15,ATATACAC,0.0284
16,AACAACGG,0.141
17,AAAGGGGT,-0.314
18,CCTACTTC,0.00524
19,GGGATCGA,-0.115
